Experimental findings from article PMC4821604 are described below.

Sequences of proteins named here, by UniProt entry; tags and fusion partners are left off.
UniProt Q9W0T1: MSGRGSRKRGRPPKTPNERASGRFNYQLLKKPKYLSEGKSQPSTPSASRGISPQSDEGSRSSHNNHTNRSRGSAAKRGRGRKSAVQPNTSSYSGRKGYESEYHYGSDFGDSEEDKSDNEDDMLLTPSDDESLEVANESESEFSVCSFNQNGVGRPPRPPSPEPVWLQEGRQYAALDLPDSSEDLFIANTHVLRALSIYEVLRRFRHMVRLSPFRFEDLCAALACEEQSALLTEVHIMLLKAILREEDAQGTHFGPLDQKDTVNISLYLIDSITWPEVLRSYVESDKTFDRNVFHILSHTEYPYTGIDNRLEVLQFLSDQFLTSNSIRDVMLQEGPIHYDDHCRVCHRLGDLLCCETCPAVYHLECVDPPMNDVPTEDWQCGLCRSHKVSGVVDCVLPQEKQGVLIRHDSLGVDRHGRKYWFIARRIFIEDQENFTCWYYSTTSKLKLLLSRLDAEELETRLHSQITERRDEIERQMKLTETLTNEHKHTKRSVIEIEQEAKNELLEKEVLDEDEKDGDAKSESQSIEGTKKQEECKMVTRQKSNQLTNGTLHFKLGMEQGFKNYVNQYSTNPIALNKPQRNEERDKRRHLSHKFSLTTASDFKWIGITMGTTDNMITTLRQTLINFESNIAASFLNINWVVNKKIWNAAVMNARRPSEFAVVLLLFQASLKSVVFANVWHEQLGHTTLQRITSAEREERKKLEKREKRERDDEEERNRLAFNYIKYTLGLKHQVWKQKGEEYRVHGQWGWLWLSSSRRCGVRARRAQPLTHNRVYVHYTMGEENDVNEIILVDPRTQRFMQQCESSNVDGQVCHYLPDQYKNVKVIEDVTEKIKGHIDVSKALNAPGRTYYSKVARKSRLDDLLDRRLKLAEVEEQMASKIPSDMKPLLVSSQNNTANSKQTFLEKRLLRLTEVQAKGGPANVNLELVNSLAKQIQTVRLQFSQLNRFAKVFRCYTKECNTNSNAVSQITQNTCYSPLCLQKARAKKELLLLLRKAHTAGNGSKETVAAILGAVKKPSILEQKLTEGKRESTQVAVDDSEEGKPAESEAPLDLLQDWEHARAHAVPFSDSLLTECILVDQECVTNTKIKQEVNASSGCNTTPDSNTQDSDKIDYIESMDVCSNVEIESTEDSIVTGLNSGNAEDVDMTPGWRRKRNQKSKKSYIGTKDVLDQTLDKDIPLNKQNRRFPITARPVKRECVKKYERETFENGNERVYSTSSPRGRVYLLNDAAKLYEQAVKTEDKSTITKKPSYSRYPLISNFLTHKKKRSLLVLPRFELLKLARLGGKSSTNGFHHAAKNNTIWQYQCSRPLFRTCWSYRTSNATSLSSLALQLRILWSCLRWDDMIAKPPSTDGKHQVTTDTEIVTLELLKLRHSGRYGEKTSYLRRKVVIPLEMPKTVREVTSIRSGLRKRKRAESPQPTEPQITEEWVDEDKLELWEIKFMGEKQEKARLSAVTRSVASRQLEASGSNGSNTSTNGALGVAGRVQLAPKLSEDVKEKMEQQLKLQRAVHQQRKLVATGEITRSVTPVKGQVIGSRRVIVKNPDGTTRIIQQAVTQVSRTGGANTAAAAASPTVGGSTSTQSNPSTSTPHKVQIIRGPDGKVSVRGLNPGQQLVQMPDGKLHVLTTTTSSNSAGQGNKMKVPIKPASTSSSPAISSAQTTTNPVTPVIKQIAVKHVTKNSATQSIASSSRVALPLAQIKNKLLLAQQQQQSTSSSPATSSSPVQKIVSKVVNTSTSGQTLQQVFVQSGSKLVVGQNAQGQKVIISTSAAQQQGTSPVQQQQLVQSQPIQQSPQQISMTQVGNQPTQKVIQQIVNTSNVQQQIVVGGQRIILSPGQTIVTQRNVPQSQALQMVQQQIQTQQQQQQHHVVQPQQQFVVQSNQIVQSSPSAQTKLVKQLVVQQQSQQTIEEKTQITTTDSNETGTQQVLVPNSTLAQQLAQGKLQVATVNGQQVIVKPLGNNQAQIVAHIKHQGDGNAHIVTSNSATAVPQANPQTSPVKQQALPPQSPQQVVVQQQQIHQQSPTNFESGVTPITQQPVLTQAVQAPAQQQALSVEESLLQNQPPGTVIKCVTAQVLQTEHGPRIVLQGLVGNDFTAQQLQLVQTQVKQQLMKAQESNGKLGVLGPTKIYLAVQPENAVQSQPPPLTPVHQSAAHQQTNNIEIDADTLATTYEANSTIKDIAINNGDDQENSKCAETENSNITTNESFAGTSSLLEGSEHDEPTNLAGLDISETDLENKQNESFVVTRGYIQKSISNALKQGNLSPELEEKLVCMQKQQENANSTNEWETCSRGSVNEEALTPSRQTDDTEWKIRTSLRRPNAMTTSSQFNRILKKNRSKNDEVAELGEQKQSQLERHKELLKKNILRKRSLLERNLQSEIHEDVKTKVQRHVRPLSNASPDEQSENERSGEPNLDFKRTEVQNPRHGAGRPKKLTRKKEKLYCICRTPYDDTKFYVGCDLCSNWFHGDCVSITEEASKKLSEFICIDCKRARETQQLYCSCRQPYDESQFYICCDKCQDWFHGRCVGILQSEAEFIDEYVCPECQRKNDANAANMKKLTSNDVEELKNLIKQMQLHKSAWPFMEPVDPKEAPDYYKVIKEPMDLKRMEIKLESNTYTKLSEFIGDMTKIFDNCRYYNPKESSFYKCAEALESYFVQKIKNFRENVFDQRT
UniProt Q7JW27: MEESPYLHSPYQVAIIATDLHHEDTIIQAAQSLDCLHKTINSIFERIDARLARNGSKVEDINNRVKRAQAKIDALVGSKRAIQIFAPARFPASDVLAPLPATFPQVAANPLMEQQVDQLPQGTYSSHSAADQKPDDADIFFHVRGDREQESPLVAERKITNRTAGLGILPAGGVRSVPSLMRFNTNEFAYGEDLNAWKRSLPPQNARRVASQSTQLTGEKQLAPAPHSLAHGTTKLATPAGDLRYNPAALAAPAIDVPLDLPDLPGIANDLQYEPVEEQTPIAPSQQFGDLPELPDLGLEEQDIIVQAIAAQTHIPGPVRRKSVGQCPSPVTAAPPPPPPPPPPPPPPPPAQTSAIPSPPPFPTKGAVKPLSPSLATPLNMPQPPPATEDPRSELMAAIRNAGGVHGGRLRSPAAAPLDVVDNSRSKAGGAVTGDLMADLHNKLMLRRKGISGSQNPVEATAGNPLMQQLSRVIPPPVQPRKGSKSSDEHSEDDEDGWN

Assay [1] concerns the target T1, Centrosomal Protein 190 (CP190) (Drosophila (endogenous in S2 cells)) (UniProt Q24478).
T1 sequence: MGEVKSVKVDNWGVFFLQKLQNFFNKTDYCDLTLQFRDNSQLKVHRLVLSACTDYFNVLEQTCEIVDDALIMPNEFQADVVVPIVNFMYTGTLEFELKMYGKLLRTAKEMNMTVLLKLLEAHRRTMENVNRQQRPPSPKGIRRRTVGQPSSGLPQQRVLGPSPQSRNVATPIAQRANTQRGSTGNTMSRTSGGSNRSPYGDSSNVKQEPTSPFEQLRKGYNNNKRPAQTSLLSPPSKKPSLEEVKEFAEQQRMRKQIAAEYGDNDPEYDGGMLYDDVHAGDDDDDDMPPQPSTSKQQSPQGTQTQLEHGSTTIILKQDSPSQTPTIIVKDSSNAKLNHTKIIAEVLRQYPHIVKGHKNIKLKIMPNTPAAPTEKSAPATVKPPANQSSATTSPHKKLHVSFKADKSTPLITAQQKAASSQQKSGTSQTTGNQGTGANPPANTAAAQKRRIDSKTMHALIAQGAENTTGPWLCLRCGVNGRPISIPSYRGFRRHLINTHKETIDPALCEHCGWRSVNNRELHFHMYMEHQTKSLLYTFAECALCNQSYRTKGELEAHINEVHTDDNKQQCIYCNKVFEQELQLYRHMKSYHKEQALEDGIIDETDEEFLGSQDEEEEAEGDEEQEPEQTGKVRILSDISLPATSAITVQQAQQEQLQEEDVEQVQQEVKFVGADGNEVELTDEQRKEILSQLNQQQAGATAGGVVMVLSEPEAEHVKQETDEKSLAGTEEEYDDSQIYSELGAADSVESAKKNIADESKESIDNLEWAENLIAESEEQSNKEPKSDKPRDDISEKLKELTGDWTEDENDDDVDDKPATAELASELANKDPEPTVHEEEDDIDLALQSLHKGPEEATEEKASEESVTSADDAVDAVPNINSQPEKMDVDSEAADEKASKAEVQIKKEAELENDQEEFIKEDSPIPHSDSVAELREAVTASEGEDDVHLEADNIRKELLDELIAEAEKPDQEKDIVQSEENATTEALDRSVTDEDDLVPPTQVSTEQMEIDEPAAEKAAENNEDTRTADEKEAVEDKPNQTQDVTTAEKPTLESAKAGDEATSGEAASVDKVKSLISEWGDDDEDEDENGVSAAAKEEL
The assay can be described thus: co-IP; S2 soluble nuclear fraction (extracted at 400 mM KCl, dialysed to 100 mM KCl) diluted into 1xPBS, 5 mg/ml BSA, 0.1% Tween-20; antibody-coated Protein G Dynabeads, 2.5 h, 4°C; four washes in 1xPBS, 0.1% Tween-20; blot, 5% input.

For assay [2], the target named is Nurf301/Enhancer of bithorax (E(bx)), the specificity subunit of Drosophila NURF (Drosophila (endogenous in S2 cells)) (UniProt Q9W0T1). The assay is described as above.

These are yes or no findings as the source states them, for the method shown. In cells and extracts the contact can be indirect. Some entries that bind do so weakly or less than the wild type.

As to “Washout (Wash), subunit of the DREF/TRF2 complex (from UniProt Q7JW27 1-499)”, the binding result in assay [1] and in assay [2] was “binds” each time.

As for “Nurf301/Enhancer of bithorax (E(bx)), the specificity subunit of Drosophila NURF (from UniProt Q9W0T1 1-2669)”, the binding entry in assay [1] was “binds”.
